In publication PMC7819943, “Rice protein-binding microarrays: a tool to detect cis-acting elements near promoter regions in rice”:
Some of the results follow.

Chains of the proteins cited; added tags and fusions are not shown.
UniProt Q0JBA9, entry or part of it: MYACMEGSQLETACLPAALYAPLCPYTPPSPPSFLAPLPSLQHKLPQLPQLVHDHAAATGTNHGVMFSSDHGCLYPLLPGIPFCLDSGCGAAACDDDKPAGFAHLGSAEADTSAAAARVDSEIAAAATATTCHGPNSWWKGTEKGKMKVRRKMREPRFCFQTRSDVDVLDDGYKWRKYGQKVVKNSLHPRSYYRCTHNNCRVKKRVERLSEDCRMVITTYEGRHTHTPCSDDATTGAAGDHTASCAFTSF

Target: OsWRKY34 (Oryza sativa, UniProt Q0JBA9 1-250)
Assay: protein-binding microarray (RPBM); PBS, 2% BSA, 51.3 ng/ul salmon testes DNA, 50 uM zinc acetate, 200 nM TF, 25 C, 1 h; high values mean tight binding
Details: protein: recombinant; tags: N-terminal polyhistidine and DsRed monomer fusion (pET32a); label: CyDye5-dUTP incorporated in the synthesized complementary strand; 3' TTTTT single-stranded linker to array surface; dsDNA, one strand shown
How it was run: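 Binding signal is defined as the fluorescence intensity of each feature in arbitrary units, read on an Axon 4000B scanner. Transcription factors with N-terminal polyhistidine and DsRed fusions came from E. coli BL21-CodonPlus and were purified on Ni–NTA. They were incubated at 200 nM for 1 h at 25 °C on a custom Agilent array that had been made double-stranded with Cy5-dUTP, with 50 µM zinc acetate present, and the array was washed.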

**Q.** How did the binding signal turn out when “TTTTTTCTTTTAGCAAATTCCCTTGCTGATTTGGCACTTTCGGAGTCACCTAGTGCAG” was run?
**A.** 9750 fluorescence intensity (a.u.)

**Q.** For “CCCATTGTTATTCCCCTACGTTTGTAATAAACTCCTCTATCGGAGTCACCTAGTGCAG”, which binding signal is on record?
**A.** 8430 fluorescence intensity (a.u.)

**Q.** How did the binding signal turn out when “AGAGCTAACTATTTTTTCCTCCTGGGTTGGAGATGCCACACGGAGTCACCTAGTGCAG” was run?
**A.** 8720 fluorescence intensity (a.u.)

**Q.** With “CCCCGATTCCACCACAGGCCACAGACCCTTCACCCGTGGCCGGAGTCACCTAGTGCAG” as the sequence, how does the binding signal read?
**A.** 8760 fluorescence intensity (a.u.)

**Q.** With “TCCATCCCGCATCCGATTCTTCCAACCAATCTCATCTTCTCGGAGTCACCTAGTGCAG” as the sequence, how does the binding signal read?
**A.** 9490 fluorescence intensity (a.u.)

**Q.** “CAACTTCTCTACGCTTCATCACAAAACCGCCTTAAGAACCCGGAGTCACCTAGTGCAG” was tested. Which binding signal did it give?
**A.** 8720 fluorescence intensity (a.u.)

**Q.** “GAGTCGTCCTAGTTTTGTTCATCGCCGTCGTCTATTATTGCGGAGTCACCTAGTGCAG” was tested. Which binding signal did it give?
**A.** 9180 fluorescence intensity (a.u.)

**Q.** With “TACTGTTGCTGCTAGTTCACCATTTGCGCATTTCCTCTTCCGGAGTCACCTAGTGCAG” as the sequence, how does the binding signal read?
**A.** 11700 fluorescence intensity (a.u.)

**Q.** How did the binding signal turn out when “CTAAGTTTTTGTGTCCAATTTTGATTGTCCGTCTTATATGCGGAGTCACCTAGTGCAG” was run?
**A.** 9720 fluorescence intensity (a.u.)

**Q.** Which binding signal does the source give for “GTAGGGTTGCTTGTGAAGATGAAATTATATGCCTAATTAACGGAGTCACCTAGTGCAG” here?
**A.** 11800 fluorescence intensity (a.u.)

**Q.** With “ACATTGTCGGGAGCATACCTCTCATCAAGTTATCACATTTCGGAGTCACCTAGTGCAG” as the sequence, how does the binding signal read?
**A.** 9910 fluorescence intensity (a.u.)

**Q.** With “AGATATGTAGTCCGTCATTCTTTTCTATCATCTTTTATCTCGGAGTCACCTAGTGCAG” as the sequence, how does the binding signal read?
**A.** 11700 fluorescence intensity (a.u.)

**Q.** With “CCTACCGCTCATCATCTTCTCTAGCCACAGGCCACAACCTCGGAGTCACCTAGTGCAG” as the sequence, how does the binding signal read?
**A.** 8520 fluorescence intensity (a.u.)

**Q.** Which binding signal does the source give for “TGATGTTTCTGTCCTTACTTATTTGACCCTGTATTAATTACGGAGTCACCTAGTGCAG” here?
**A.** 10800 fluorescence intensity (a.u.)

**Q.** Which binding signal does the source give for “GATTGATCGCCTCTCCGCCGCCGCCGCTGCCGCCGCAGCCCGGAGTCACCTAGTGCAG” here?
**A.** 9580 fluorescence intensity (a.u.)

**Q.** How did the binding signal turn out when “GCAACACGCTCCTTCCGCTTGAGGCCAAGTAGCAGCTTCCCGGAGTCACCTAGTGCAG” was run?
**A.** 8050 fluorescence intensity (a.u.)

**Q.** For “GCCATTGACAGCGTTGACCAAGTCAGCCGCTCCAGCCTCTCGGAGTCACCTAGTGCAG”, which binding signal is on record?
**A.** 14200 fluorescence intensity (a.u.)

**Q.** With “AACTTCCTTTGTTTTGCAAAAACTTTTTATATATAAGTTTCGGAGTCACCTAGTGCAG” as the sequence, how does the binding signal read?
**A.** 8420 fluorescence intensity (a.u.)

**Q.** How did the binding signal turn out when “CCGCCCATCTAGTCTTGGCCGCGGCGCCACCTCGCAAGTCCGGAGTCACCTAGTGCAG” was run?
**A.** 8260 fluorescence intensity (a.u.)

**Q.** How did the binding signal turn out when “AACAGTTACAGCCCCATGGATCCATAGCCAGTTAGCCACGCGGAGTCACCTAGTGCAG” was run?
**A.** 8550 fluorescence intensity (a.u.)

**Q.** Which binding signal does the source give for “AAACGGTGCGTTTTTTGCAAAAAAATTCTATAGGAAAGTTCGGAGTCACCTAGTGCAG” here?
**A.** 63900 fluorescence intensity (a.u.)

**Q.** How did the binding signal turn out when “ACTGTCCTCCACGCACATCACTCGTTTCCATTATTTATACCGGAGTCACCTAGTGCAG” was run?
**A.** 11600 fluorescence intensity (a.u.)

**Q.** “GTATGTCCGCTTTCCGTCGGGTCGGTTCCTACCTCCCTGACGGAGTCACCTAGTGCAG” was tested. Which binding signal did it give?
**A.** 8130 fluorescence intensity (a.u.)

**Q.** “AACTTTCAGACATGCCTCTTGCTATACTATATATATTGCACGGAGTCACCTAGTGCAG” was tested. Which binding signal did it give?
**A.** 8690 fluorescence intensity (a.u.)

**Q.** Which binding signal does the source give for “GCATGACCCCACAACATCTTGATAGTTCATGTTCATTCTCCGGAGTCACCTAGTGCAG” here?
**A.** 10700 fluorescence intensity (a.u.)

**Q.** “TGCTTTTCATGTTTATTGATTTAGGCGCACCTGTTCTGTTCGGAGTCACCTAGTGCAG” was tested. Which binding signal did it give?
**A.** 8350 fluorescence intensity (a.u.)

**Q.** How did the binding signal turn out when “GGTGATTTGGTTTTGTTTCAGTTTTTTTTTAAAAAAAATGCGGAGTCACCTAGTGCAG” was run?
**A.** 10500 fluorescence intensity (a.u.)

**Q.** With “AGGGTGGGTGGCGCGGGCCGCCGCCGGTTCGACGCCGGCGCGGAGTCACCTAGTGCAG” as the sequence, how does the binding signal read?
**A.** 10500 fluorescence intensity (a.u.)

**Q.** With “TATTTACACTACACCCAATATATTTGCTACCAATCCACTTCGGAGTCACCTAGTGCAG” as the sequence, how does the binding signal read?
**A.** 8970 fluorescence intensity (a.u.)

**Q.** With “AGATATTTACACGTTCATGTCTCCTGATGTTCACAAAGCTCGGAGTCACCTAGTGCAG” as the sequence, how does the binding signal read?
**A.** 8050 fluorescence intensity (a.u.)

**Q.** For “TTTCTGCACTTGTGGATAACTCTGCAGTGATTTTTTATTTCGGAGTCACCTAGTGCAG”, which binding signal is on record?
**A.** 8630 fluorescence intensity (a.u.)

**Q.** How did the binding signal turn out when “CTCTCTCGCTTCTTCTCTGTGTGTGTGTTGCGTGGTGGGGCGGAGTCACCTAGTGCAG” was run?
**A.** 23800 fluorescence intensity (a.u.)

**Q.** How did the binding signal turn out when “AAATTCGCAGTATATATCTCACGCAATACTATTTAAACATCGGAGTCACCTAGTGCAG” was run?
**A.** 8192 fluorescence intensity (a.u.)

**Q.** Which binding signal does the source give for “GTTTGCCTTCACTTATTTTCTTCTAACCTACGACATTTTTCGGAGTCACCTAGTGCAG” here?
**A.** 10600 fluorescence intensity (a.u.)

**Q.** How did the binding signal turn out when “CCGCTCTTTTTCTCCTTTCCTTCTTGGAGTATCTTTATCTCGGAGTCACCTAGTGCAG” was run?
**A.** 9980 fluorescence intensity (a.u.)

**Q.** For “CCCCTATTTTGTTACCTCATTATTCTCGTATTCCCCTTTTCGGAGTCACCTAGTGCAG”, which binding signal is on record?
**A.** 9810 fluorescence intensity (a.u.)

**Q.** For “CGGGGCAGTGACCACCACCACCACATCACCCACCGCATTCCGGAGTCACCTAGTGCAG”, which binding signal is on record?
**A.** 9180 fluorescence intensity (a.u.)

**Q.** With “GCTCCAGATCTGTGGGTGTCTTTGGGTGAGTGGGCAAATACGGAGTCACCTAGTGCAG” as the sequence, how does the binding signal read?
**A.** 11200 fluorescence intensity (a.u.)

**Q.** For “GTGCTCATCAATAAGTTATTCTCTCTCTCTCAAACAGAAACGGAGTCACCTAGTGCAG”, which binding signal is on record?
**A.** 8880 fluorescence intensity (a.u.)

**Q.** Which binding signal does the source give for “AAACTAGGTCTGTTAATCACGGTTCTAAATTTTATCCCCTCGGAGTCACCTAGTGCAG” here?
**A.** 8200 fluorescence intensity (a.u.)

**Q.** Which binding signal does the source give for “TCGTTTTTGTTTAGCTACACTAGCCCGTTCTTTTTGACTCCGGAGTCACCTAGTGCAG” here?
**A.** 11300 fluorescence intensity (a.u.)

**Q.** “TTTCTTTTTTTAGACGGAGGGAGTATTTTACAGGGGTTTCCGGAGTCACCTAGTGCAG” was tested. Which binding signal did it give?
**A.** 8380 fluorescence intensity (a.u.)
